The test system of this test is P388 leukemia ip, CD2F1 mice, survival T/C. The experiment in a line: NCI In Vivo Anticancer Drug Screen. Data for tumor model P388 Leukemia (intraperitoneal) in CD2F1 (CDF1) mice. Particulars: T/C endpoint: median survival time, higher T/C = longer survival.
The mark [1] stands for this setting: dose: 100.0 mg/kg/injection, schedule: Q01DX005 (ip), vehicle: Klucel (hydroxypropylcellulose) (HPC).
The mark [2] stands for this setting: dose: 200.0 mg/kg/injection, schedule: Q01DX005 (ip), vehicle: Klucel (hydroxypropylcellulose) (HPC).
The mark [3] stands for this setting: dose: 400.0 mg/kg/injection, schedule: Q04DX002 (ip), vehicle: saline with Tween-80.
Setting [4] is: dose: 50.0 mg/kg/injection, schedule: Q01DX005 (ip), vehicle: saline with Tween-80.
[5] abbreviates: dose: 100.0 mg/kg/injection, schedule: Q01DX009 (ip), vehicle: saline with Tween-80.
Setting [6] is: dose: 400.0 mg/kg/injection, schedule: Q01DX009 (ip), vehicle: saline.

The list is a part of this screen's results and no random one: it is rich in T/C values a quarter to a half above the control, in often repeated tests (any T/C) and in doses without a T/C. Other doses and runs of a compound stand elsewhere. T/C gives the treated animals as a percentage of the vehicle group. Some entries give survivors of the animals treated and no T/C: the source holds a T/C of zero for them, seemingly a mark for toxic or unscored doses. Some survivor counts are full or nearly so, which does not show that the dose was tolerated: the source hardly ever lists a survival T/C far under the control, and the zero likely stands for such cases as well. Counts of survivors are from the toxicity check (mostly the fifth day) where no day follows; animals may have died later. Schedule codes are those of the source, taken here to give the interval after Q, in days (D) or hours (H), and the number of doses after X. Marks such as (2×) count equal records among those shown. Some doses were run more than once; their values stand side by side, smallest first. Where survival is the endpoint, the PubChem record calls one and a half times the control and up active, and a quarter to a half above the control has no call in these data; cut-offs in other NCI protocols can differ. Some T/C values are followed by the survivors on the day toxicity was checked, most often the fifth; without a count, all were alive then.

As for `Cc1cc(O)c2c(c1)C(=O)C(c1c(C)cc3c(c1O)C(=O)C1OC1C3=O)=CC2=O` (stereo not drawn), the survivor count reads like this: (dose: 12.5 mg/kg/injection, schedule: Q01DX005 (ip), vehicle: Klucel (hydroxypropylcellulose) (HPC)) 0 of 5; (dose: 25.0 mg/kg/injection, schedule: Q01DX005 (ip), vehicle: Klucel (hydroxypropylcellulose) (HPC)) 0 of 5; (dose: 50.0 mg/kg/injection, schedule: Q01DX005 (ip), vehicle: Klucel (hydroxypropylcellulose) (HPC)) 0 of 5; under setting [1], 0 of 5; under setting [2], 0 of 5.

Consider `COc1cc(OC(C)C)cc2c1C(=O)C(C(O)(O)C(F)(F)F)=CC2=O`, for which the survivor count by setting is: (dose: 60.0 mg/kg/injection, schedule: Q01DX005 (ip), vehicle: Klucel (hydroxypropylcellulose) (HPC)) 3 of 6; (dose: 120.0 mg/kg/injection, schedule: Q01DX005 (ip), vehicle: Klucel (hydroxypropylcellulose) (HPC)) 5 of 6; (dose: 240.0 mg/kg/injection, schedule: Q01DX005 (ip), vehicle: Klucel (hydroxypropylcellulose) (HPC)) 0 of 6.

Regarding `CNC(=O)OCc1c(COC(=O)NC)c(-c2ccc(SC)cc2)n(C)c1C`, the T/C (dose: 3.12 mg/kg/injection, schedule: Q01DX009 (ip), vehicle: distilled water + Tween-80) is 130 % of control; the T/C (dose: 6.25 mg/kg/injection, schedule: Q01DX009 (ip), vehicle: distilled water + Tween-80) was 142 and 143 % of control; the T/C (dose: 12.5 mg/kg/injection, schedule: Q01DX009 (ip), vehicle: distilled water + Tween-80) was 144 % of control; the T/C (dose: 25.0 mg/kg/injection, schedule: Q01DX009 (ip), vehicle: distilled water + Tween-80) was 144 and 145 % of control. Further, the survivor count (dose: 50.0 mg/kg/injection, schedule: Q01DX009 (ip), vehicle: distilled water + Tween-80) is 6 of 6.

Consider `CC(C)(C)c1cc(C(=O)O)c(SSc2ccccc2)c(C(=O)O)c1`, for which the survivor count is reported as 5 of 6 (dose: 200.0 mg/kg/injection, schedule: Q04DX002 (ip), vehicle: Klucel (hydroxypropylcellulose) (HPC)) and 0 of 6 (dose: 400.0 mg/kg/injection, schedule: Q04DX002 (ip), vehicle: Klucel (hydroxypropylcellulose) (HPC)).

For `Cn1c(=O)c2c(ncn2-c2ccc(N)cn2)n(C)c1=O`, the survivor count by setting is: under setting [1], 5 of 5; under setting [2], 5 of 5.

For `CC(C)(Cc1nocc1C(C)(C)CC#N)c1cc(CC(C)(C)C2(C)OCCO2)no1`, the survivor count (dose: 240.0 mg/kg/injection, schedule: Q01DX005 (ip), vehicle: saline with Tween-80) is 4 of 6.

In the case of `NC(=O)c1c(N)ncnc1N`, the survivor count runs as follows: (dose: 100.0 mg/kg/injection, schedule: Q04DX002 (ip), vehicle: saline with Tween-80) 1 of 6; (dose: 200.0 mg/kg/injection, schedule: Q04DX002 (ip), vehicle: saline with Tween-80) 0 of 6; under setting [3], 0 of 6.

Regarding `CCNCC1c2ccccc2-c2nc3ccccc3nc2-c2ccccc21`, the survivor count under setting [3] is listed as 0 of 6.

For the compound `Oc1ccc2ccccc2c1/C=N/NC(=S)N/N=C/c1c(O)ccc2ccccc12`, the survivor count is 6 of 6 (dose: 3.0 mg/kg/injection, schedule: Q01DX005 (ip), vehicle: saline with Tween-80); 6 of 6 (dose: 12.5 mg/kg/injection, schedule: Q01DX005 (ip), vehicle: saline with Tween-80); 6 of 6 (dose: 25.0 mg/kg/injection, schedule: Q01DX005 (ip), vehicle: saline with Tween-80); 6 of 6 (2×) under setting [4].

`Cc1nc2sccn2c1C#N`: the survivor count reads like this: (dose: 100.0 mg/kg/injection, schedule: Q01DX001 (ip), vehicle: Klucel (hydroxypropylcellulose) (HPC)) 3 of 6; (dose: 200.0 mg/kg/injection, schedule: Q01DX001 (ip), vehicle: Klucel (hydroxypropylcellulose) (HPC)) 0 of 6; (dose: 400.0 mg/kg/injection, schedule: Q01DX001 (ip), vehicle: Klucel (hydroxypropylcellulose) (HPC)) 0 of 6.

As to `O=C(c1ccncc1)N(CO)N(Cn1c(=O)sc2ccccc21)Cn1c(=O)sc2ccccc21`, the survivor count is, setting by setting: (dose: 50.0 mg/kg/injection, schedule: Q01DX009 (ip), vehicle: Klucel (hydroxypropylcellulose) (HPC)) 6 of 6; (dose: 100.0 mg/kg/injection, schedule: Q01DX009 (ip), vehicle: Klucel (hydroxypropylcellulose) (HPC)) 6 of 6; (dose: 200.0 mg/kg/injection, schedule: Q01DX009 (ip), vehicle: Klucel (hydroxypropylcellulose) (HPC)) 6 of 6.

On to `CCCCOC1OCN(C2CCCCC2)CC1(C)C` (stereo not drawn), for which the T/C under setting [5] is 128 and 129 % of control [5 of 6 alive]; the T/C (dose: 200.0 mg/kg/injection, schedule: Q01DX009 (ip), vehicle: saline with Tween-80) is 126 and 145 % of control.

On to `COc1cc(N(CCCl)CCCl)c(OC)cc1/C=N\Nc1nncn1N`, for which the T/C (dose: 0.62 mg/kg/injection, schedule: Q01DX009 (ip), vehicle: saline) is 140 % of control and the T/C (dose: 1.0 mg/kg/injection, schedule: Q01DX009 (ip), vehicle: saline) was 136 % of control.

As to `COc1ccc(CSC(=S)Nc2ccc(F)c(C)c2)cc1`, the survivor count (dose: 200.0 mg/kg/injection, schedule: Q01DX009 (ip), vehicle: suspension in saline) is listed as 3 of 6.

In the case of `O=C(c1ccccc1)c1ccc[n+](Cc2ccccc2)c1`, the survivor count (dose: 200.0 mg/kg/injection, schedule: Q01DX005 (ip), vehicle: saline) is reported as 0 of 6.

On to `COC(=O)C1=C(C(=O)OC)C(C)(C)N=N1`, for which, where the note is “dose: 12.5 mg/kg/injection, schedule: Q01DX009 (ip), vehicle: other”, the T/C is 125 % of control [4 of 6 alive]. Besides, the survivor count runs as follows: (dose: 50.0 mg/kg/injection, schedule: Q01DX009 (ip), vehicle: other) 0 of 6; (dose: 100.0 mg/kg/injection, schedule: Q01DX009 (ip), vehicle: other) 0 of 6; (dose: 200.0 mg/kg/injection, schedule: Q01DX009 (ip), vehicle: other) 0 of 6.

As for `O=NN(CCF)C(=O)Oc1cc(Cl)c(Cl)cc1Cl`, the T/C (dose: 6.0 mg/kg/injection, schedule: Q01DX005 (ip), vehicle: saline with Tween-80) was 130 % of control. For the same compound, under setting [4], the survivor count is recorded as 0 of 6.

Take `COc1cccc(OC)c1C(c1c(OC)cccc1OC)c1c(OC)cccc1OC`: the T/C (dose: 50.0 mg/kg/injection, schedule: Q04DX003 (ip), vehicle: saline with Tween-80) was 127 % of control.

For `c1nc(SSc2ncnc3nc[nH]c23)c2[nH]cnc2n1`, the survivor count (dose: 75.0 mg/kg/injection, schedule: Q01DX009 (ip), vehicle: saline with Tween-80) is 5 of 6; the survivor count under setting [5] was 6 of 6; the survivor count (dose: 115.0 mg/kg/injection, schedule: Q01DX009 (ip), vehicle: saline with Tween-80) was 3 of 6; the survivor count (dose: 170.0 mg/kg/injection, schedule: Q01DX009 (ip), vehicle: saline with Tween-80) was 2 of 6.

Take `O=C1c2ccccc2C(=O)c2c(Nc3cc4c5c(ccc6c7ccc8c9c(cc(Nc%10cccc%11c%10C(=O)c%10ccccc%10C%11=O)c(c3c56)c97)-c3ccccc3C8=O)C(=O)c3ccccc3-4)cccc21`: the survivor count under setting [2] is listed as 3 of 5.

Take `COc1cc2c3c(c1)-c1c(ccc(OC)c1O)CC3N(C)CC2` (stereo not drawn): the survivor count (dose: 100.0 mg/kg/injection, schedule: Q04DX003 (ip), vehicle: DMSO) is 3 of 6.

For the compound `CCOC(=O)C(C)(C)Oc1ccc(Cl)cc1`, the T/C (dose: 400.0 mg/kg/injection, schedule: Q01DX009 (ip), vehicle: saline with Tween-80) was 128 % of control.

With `CC(=O)Oc1ccc(=O)[nH]c1`, the T/C was 100 (2×), 101, 112 % of control (dose: 25.0 mg/kg/injection, schedule: Q01DX009 (ip), vehicle: saline); 100, 103, 105, 112 % of control (dose: 50.0 mg/kg/injection, schedule: Q01DX009 (ip), vehicle: saline); 102, 109, 112 % of control (2×) (dose: 100.0 mg/kg/injection, schedule: Q01DX009 (ip), vehicle: saline); 110, 115, 119, 121 % of control (dose: 200.0 mg/kg/injection, schedule: Q01DX009 (ip), vehicle: saline); 132 % of control under setting [6]. For the same compound, under setting [6], the survivor count is on record as 3 of 6, 5 of 6, 6 of 6.

Source of the values: PubChem BioAssay AID330 (DTP/NCI, 2004).
